Data: US11773067B2, “(Trifluoromethyl)pyrimidine-2-amine compounds” (Eli Lilly and Company, priority 2020, dated 2023)
Some of these results come from one statement about several compounds together.

Sequences of proteins named here, by UniProt entry; tags and fusion partners are left off. A change or cut given only in a name is not applied to a line headed by its entry.
UniProt Q96LB2: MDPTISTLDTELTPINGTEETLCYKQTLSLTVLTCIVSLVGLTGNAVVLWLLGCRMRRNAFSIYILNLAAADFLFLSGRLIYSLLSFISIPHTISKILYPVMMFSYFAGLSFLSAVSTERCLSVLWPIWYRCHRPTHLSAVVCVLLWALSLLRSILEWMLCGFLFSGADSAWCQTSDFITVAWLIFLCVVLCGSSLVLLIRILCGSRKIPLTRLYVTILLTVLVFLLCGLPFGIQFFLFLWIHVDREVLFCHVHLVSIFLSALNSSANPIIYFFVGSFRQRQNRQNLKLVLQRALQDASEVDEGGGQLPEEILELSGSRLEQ

The compounds below were run against T1, human MrgX1 receptor (Homo sapiens, UniProt Q96LB2) (assay: IP1 Cellular Assay for EC50 Determination Against hMrgX1 by HTRF). Conditions: Table 1.
T1 construct: expressed in transfected cells
Assay type: cell-based
Description: IP1 Cellular Assay for EC50 Determination Against hMrgX1 by HTRF
Cell plating: HEK293 cells stably expressing the recombinant human MrgX1 receptor are expanded in culture flasks (Corning, T150), using growth media containing DMEM with glutamine (GIBCO™, Cat. #11960-044) supplemented with 10% heat-inactivated FBS (HyClone™, Cat. #CH30073), 1% penicillin/streptomycin (HyClone™, Cat. #SV30010; 10,000 U/mL penicillin; 10,000 μg/mL streptomycin in 0.85% NaCl), 20 mM HEPES (GIBCO™, Cat. #15530122) and 0.3 mg/mL G418 (GIBCO™, Cat. #11811031). When cell monolayers achieve a level of 80-90% confluence, monolayers are washed once with 10 mL of DPBS (HyClone™, Cat. #14190-144), dissociated using TrypLE™ Express enzyme cell dissociation media (GIBCO™, Cat. #12605-010), and diluted by addition of 10 mL DPBS. Dissociated cells are transferred to a sterile 50 mL conical tube, pelleted by centrifugation at 300×g to remove the growth and dissociation media, and diluted to 1M cells/mL into DMEM for plating.
IP1 Potency and Efficacy Determination: Test compounds are dissolved in DMSO to a concentration of 10 mM and serially diluted in DMSO to obtain a 10-point concentration response stock dilution plate. Growth media is removed from the cell plate, and the stock 10-point dilution plate is diluted into media and stamped into the cell plate at a concentration 2× higher than the final test concentration of 30 μM maximum. The endogenous agonist […] (Tocris-BioScience® Cat. #1763) is diluted to the EC15, determined independently at a minimum of n=3, into the cell plate and incubated at room temperature for 120 min. Subsequently, half the volume each of anti-IP1 cryptate and d2-labeled IP1 in lysis buffer, supplied with the IP-One Gq Kit (CisBio Cat. #62IPAPEC) are added to the cell plate to initiate cell lysis, and incubated for 60 min at room temperature in the dark. At that point, fluorescence is determined at 620 and 665 nm (˜100 μs following laser excitation).
Data Analysis: Fluorescent ratios are determined as the ratio of the fluorescence emission at […] and converted to IP1 concentration, using the IP1 standard curve generated in a separate plate, following the manufacturer's instructions. The IP1 concentration is then plotted as a function of compound concentration. Potentiator potency (EC50) is defined as the compound concentration, in the presence of the EC15 of the endogenous agonist […], resulting in 50% of the increase in IP1 concentration achieved by a saturating concentration of […], and is determined by using Genedata software (GeneData AG, Basel Switzerland) fitting the following equation to the 10-point CRC, where y is the IP1 concentration determined for a given compound concentration, [L] denotes the concentration of test compound and Max is the maximum increase achieved by a saturating concentration of […]: Y=Max*[L]/(EC50+[L]) EC50 values are reported as the geometric mean in nM (SEM, n).
For `Nc1nc(Oc2c(F)cccc2F)cc(C(F)(F)F)n1` [Example 1, 4-(2,6-Difluorophenoxy)-6-(trifluoromethyl)pyrimidin-2-amine], the “potentiation of hMrgX1 (in words)” value was “potentiators of hMrgX1”. `Nc1nc(Oc2c(F)cc(F)cc2F)cc(C(F)(F)F)n1` [Example 2, 4-(2,4,6-Trifluorophenoxy)-6-(trifluoromethyl)pyrimidin-2-amine] was tested, and the “potentiation of hMrgX1 (in words)” value was “potentiators of hMrgX1”. In the case of `N#Cc1cc(F)c(Oc2cc(C(F)(F)F)nc(N)n2)c(F)c1` [Example 3, 4-[2-Amino-6-(trifluoromethyl)pyrimidin-4-yl]oxy-3,5-difluoro-benzonitrile], the “potentiation of hMrgX1 (in words)” value was “potentiators of hMrgX1”. For `Cc1c(Oc2c(F)cc(F)cc2F)nc(N)nc1C(F)(F)F` [Example 4, 5-Methyl-4-(trifluoromethyl)-6-(2,4,6-trifluorophenoxy)pyrimidin-2-amine], the “potentiation of hMrgX1 (in words)” value was “potentiators of hMrgX1”. `Cc1c(Oc2c(F)cc(C#N)cc2F)nc(N)nc1C(F)(F)F` [Example 5, 4-[2-Amino-5-methyl-6-(trifluoromethyl)pyrimidin-4-yl]oxy-3,5-difluoro-benzonitrile] was tested, and the “potentiation of hMrgX1 (in words)” value was “potentiators of hMrgX1”. With `Cc1c(Oc2c(F)cccc2F)nc(N)nc1C(F)(F)F` [Example 6, 4-(2,6-difluorophenoxy)-5-methyl-6-(trifluoromethyl)pyrimidin-2-amine] the “potentiation of hMrgX1 (in words)” value was “potentiators of hMrgX1”.
